Article PMC8089095
Results are given in words; binding and its absence hold for the method and conditions named. For some of these results: Binding seen in cells or lysates may run through a third protein. Some results given as binding are weak or reduced against the parent protein; the word gives no strength. For some of these results: Tags and fused reporters may be left off the sequences shown. Blank lines part the entries; values can stand above or below the molecule they belong to.

Sequences of proteins named here, by UniProt entry; tags and fusion partners are left off.
UniProt O43474: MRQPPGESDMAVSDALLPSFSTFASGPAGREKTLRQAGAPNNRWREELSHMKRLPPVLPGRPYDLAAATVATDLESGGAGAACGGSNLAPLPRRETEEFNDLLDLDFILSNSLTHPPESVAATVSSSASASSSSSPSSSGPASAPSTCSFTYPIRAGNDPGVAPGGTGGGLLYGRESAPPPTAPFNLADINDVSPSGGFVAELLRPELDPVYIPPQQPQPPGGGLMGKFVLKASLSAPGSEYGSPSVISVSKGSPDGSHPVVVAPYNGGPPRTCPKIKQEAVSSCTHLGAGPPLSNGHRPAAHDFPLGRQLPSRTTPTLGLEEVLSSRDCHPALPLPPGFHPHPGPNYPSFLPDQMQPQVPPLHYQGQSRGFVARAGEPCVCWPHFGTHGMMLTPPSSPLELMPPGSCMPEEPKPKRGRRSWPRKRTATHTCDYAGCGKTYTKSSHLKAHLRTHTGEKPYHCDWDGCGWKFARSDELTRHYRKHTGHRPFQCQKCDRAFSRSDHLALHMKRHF

Columns and labels:
[1] = molecular target: T1, Flag-ITIH5 (inter-alpha-trypsin inhibitor heavy chain 5) (UniProt Q86UX2); assay: co-IP; Flag-ITIH5 and GFP-KLF4 cotransfected into 293T cells; lysates (1% NP40 lysis buffer) immunoprecipitated with anti-Flag or anti-GFP, protein A/G agarose, 4 °C
T1 sequence: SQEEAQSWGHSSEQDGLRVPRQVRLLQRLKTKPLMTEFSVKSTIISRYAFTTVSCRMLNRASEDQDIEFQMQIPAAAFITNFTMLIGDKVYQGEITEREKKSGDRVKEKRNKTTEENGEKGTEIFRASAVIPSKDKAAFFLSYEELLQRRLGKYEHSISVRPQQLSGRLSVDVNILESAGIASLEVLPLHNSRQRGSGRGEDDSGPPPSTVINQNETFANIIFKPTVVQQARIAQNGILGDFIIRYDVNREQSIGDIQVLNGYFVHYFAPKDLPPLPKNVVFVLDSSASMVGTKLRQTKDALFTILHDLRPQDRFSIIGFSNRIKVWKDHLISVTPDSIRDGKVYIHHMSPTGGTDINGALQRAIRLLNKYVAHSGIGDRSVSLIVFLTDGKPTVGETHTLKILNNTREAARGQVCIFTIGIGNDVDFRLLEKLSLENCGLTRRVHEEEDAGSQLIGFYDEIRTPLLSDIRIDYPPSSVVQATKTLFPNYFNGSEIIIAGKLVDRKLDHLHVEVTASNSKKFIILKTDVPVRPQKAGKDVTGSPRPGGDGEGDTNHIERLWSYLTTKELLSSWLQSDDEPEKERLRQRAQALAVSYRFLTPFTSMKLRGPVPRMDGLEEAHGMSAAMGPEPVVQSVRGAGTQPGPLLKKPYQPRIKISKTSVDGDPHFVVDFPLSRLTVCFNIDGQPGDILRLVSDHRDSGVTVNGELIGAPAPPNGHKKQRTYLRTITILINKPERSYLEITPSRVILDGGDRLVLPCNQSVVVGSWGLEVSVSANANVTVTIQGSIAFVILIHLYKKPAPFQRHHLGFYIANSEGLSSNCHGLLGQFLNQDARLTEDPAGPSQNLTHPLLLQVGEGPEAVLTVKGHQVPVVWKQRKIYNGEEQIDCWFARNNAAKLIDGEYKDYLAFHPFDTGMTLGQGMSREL

[2] = molecular target: GFP-KLF4 (Krüppel-like factor 4) (UniProt O43474); assay: as above
GST-KLF4 = GST-KLF4 (UniProt O43474); assay: pull-down; GST or GST-KLF4 bound to GST agarose beads incubated with Flag-ITIH5 purified from HEK293T cells, 6 h at 4 °C (legend: 12 h), washed four times with PBS, western blot with Flag antibody; both purified
[3] = molecular target: KLF4, endogenous in Mel-RM and Mel-CV cells (human (endogenous in Mel-RM and Mel-CV)) (UniProt O43474); assay: co-IP; endogenous proteins; Mel-RM and Mel-CV lysates immunoprecipitated with control IgG or anti-KLF4

- binding [1]: binds
Molecule: GFP-KLF4 (Krüppel-like factor 4) (from UniProt O43474 1-513)

- binding [2]: binds
- binding (GST-KLF4): binds
B1: Flag-ITIH5 (inter-alpha-trypsin inhibitor heavy chain 5) (protein, UniProt Q86UX2 17-942)
chain: T1 sequence

- binding [3]: binds
B2: ITIH5, endogenous in Mel-RM and Mel-CV cells (protein, UniProt Q86UX2 17-942)
chain: T1 sequence
